Measurements reported in PubChem BioAssay AID720703 (Peter MacCallum Cancer Centre, 2013).
Shown is a random part of 714 deposited reagents. Of all reagents, 50 (7%) got an active call. 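Chosen pools sit at both extremes, so both low and high scores count as candidates; some pools appear more than once.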 A reagent listed more than once was tested more than once; the source does not tell the runs apart.

Aim: 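Which kinases alter ERK activation once AT1R is stimulated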 (primary screen)
System: immortalised, SV40-transformed mammary epithelial cells from human, with stable expression of tagged AT1R
Reagent: siRNA pool against human genes, 40 nM siRNA pool per well
Timing: 72 h from transfection to lysis and read-out
Treatment: angiotensin II stimulation (dose and duration not given); EGFR inhibitor AG1478 also listed
Measured: 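ERK1/2 phosphorylation corrected for confluency, given as a robust z-score, mean over two replicate plates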
Direction: phospho-ERK z-score: higher = more ERK phosphorylation after angiotensin II, relative to plate
Hit rule: 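Pools were ordered by robust z-score and 50 top-ranked pools, whether they raised or lowered the signal, were chosen for secondary testing; no numeric threshold was reported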
Calls: active = picked for secondary screen; inactive = not picked

Which result is listed for EIF2AK3 (eukaryotic translation initiation factor 2 alpha kinase 3)?
phospho-ERK z-score, replicate mean: 0.23; Outcome: inactive

What did the screen give for HK2 (hexokinase 2)?
phospho-ERK z-score, replicate mean: -0.16; Outcome: inactive

With EPHA8 (EPH receptor A8), what was measured?
phospho-ERK z-score, replicate mean: 1.23; Outcome: inactive

Which result is listed for DGKG (diacylglycerol kinase gamma)?
phospho-ERK z-score, replicate mean: 0.05; Outcome: inactive

What did the screen give for DCK (deoxycytidine kinase)?
phospho-ERK z-score, replicate mean: -0.23; Outcome: inactive

With NEK10 (NIMA related kinase 10), how do the results read?
phospho-ERK z-score, replicate mean: -1.21; Outcome: inactive

With MAPK4 (mitogen-activated protein kinase 4), what was measured?
phospho-ERK z-score, replicate mean: 1.14; Outcome: inactive

Which result is listed for STRADB (STE20 related adaptor beta)?
phospho-ERK z-score, replicate mean: -0.12; Outcome: inactive

How did the screen score CDK2 (cyclin dependent kinase 2)?
phospho-ERK z-score, replicate mean: -0.18; Outcome: inactive

With MAPK12 (mitogen-activated protein kinase 12), what was measured?
phospho-ERK z-score, replicate mean: 1.34; Outcome: inactive

What is on record for JAK1 (Janus kinase 1)?
phospho-ERK z-score, replicate mean: -0.11; Outcome: inactive

How did the screen score TSKS (testis specific serine kinase substrate)?
phospho-ERK z-score, replicate mean: 0.79; Outcome: inactive

What did the screen give for MAP3K6 (mitogen-activated protein kinase kinase kinase 6)?
phospho-ERK z-score, replicate mean: 0.84; Outcome: inactive

Which result is listed for CDK4 (cyclin dependent kinase 4)?
phospho-ERK z-score, replicate mean: -0.42; Outcome: inactive

How did the screen score IP6K3 (inositol hexakisphosphate kinase 3)?
phospho-ERK z-score, replicate mean: -0.31; Outcome: inactive

With ROR2 (ROR family WNT receptor 2), how do the results read?
phospho-ERK z-score, replicate mean: -0.24; Outcome: inactive

With RET (ret proto-oncogene), what does the deposit list?
phospho-ERK z-score, replicate mean: -0.55; Outcome: inactive

What did the screen give for PLK2 (polo like kinase 2)?
phospho-ERK z-score, replicate mean: -0.07; Outcome: inactive

For BRD4 (bromodomain containing 4), what does the deposit list?
phospho-ERK z-score, replicate mean: 1.71; Outcome: inactive

What is on record for TTBK1 (tau tubulin kinase 1)?
phospho-ERK z-score, replicate mean: -0.36; Outcome: inactive

For LIMK2 (LIM domain kinase 2), what was measured?
phospho-ERK z-score, replicate mean: 1.35; Outcome: inactive

What did the screen give for STK17A (serine/threonine kinase 17a)?
phospho-ERK z-score, replicate mean: -0.32; Outcome: inactive

What did the screen give for STK40 (serine/threonine kinase 40)?
phospho-ERK z-score, replicate mean: -1.15; Outcome: inactive

With STK40 (serine/threonine kinase 40), what does the deposit list?
phospho-ERK z-score, replicate mean: 0.38; Outcome: inactive

With PRKACA (protein kinase cAMP-activated catalytic subunit alpha), how do the results read?
phospho-ERK z-score, replicate mean: 0.03; Outcome: inactive

For CKMT2 (creatine kinase, mitochondrial 2), how do the results read?
phospho-ERK z-score, replicate mean: -0.56; Outcome: inactive

With CDK18 (cyclin dependent kinase 18), what was measured?
phospho-ERK z-score, replicate mean: 2.62; Outcome: inactive

Which result is listed for ACVR2B (activin A receptor type 2B)?
phospho-ERK z-score, replicate mean: -0.25; Outcome: inactive

What is on record for MAP3K15 (mitogen-activated protein kinase kinase kinase 15)?
phospho-ERK z-score, replicate mean: 0.72; Outcome: inactive

With PIK3CD, what does the deposit list?
phospho-ERK z-score, replicate mean: 0.5; Outcome: inactive

How did the screen score RIPK3 (receptor interacting serine/threonine kinase 3)?
phospho-ERK z-score, replicate mean: 1.58; Outcome: inactive

What did the screen give for CDK11A (cyclin dependent kinase 11A)?
phospho-ERK z-score, replicate mean: -1.34; Outcome: active

With FLT3 (fms related receptor tyrosine kinase 3), what does the deposit list?
phospho-ERK z-score, replicate mean: -4.88; Outcome: active

For MARK4 (microtubule affinity regulating kinase 4), how do the results read?
phospho-ERK z-score, replicate mean: -0.05; Outcome: inactive

With ACVRL1 (activin A receptor like type 1), what was measured?
phospho-ERK z-score, replicate mean: 0.66; Outcome: inactive

For PSTK (phosphoseryl-tRNA kinase), what does the deposit list?
phospho-ERK z-score, replicate mean: 0.38; Outcome: inactive

What did the screen give for FER (FER tyrosine kinase)?
phospho-ERK z-score, replicate mean: 0.23; Outcome: inactive

With AK3 (adenylate kinase 3), what was measured?
phospho-ERK z-score, replicate mean: -0.81; Outcome: inactive

What is on record for CDK19 (cyclin dependent kinase 19)?
phospho-ERK z-score, replicate mean: -0.36; Outcome: inactive

With STK11 (serine/threonine kinase 11), what was measured?
phospho-ERK z-score, replicate mean: 0.72; Outcome: inactive

With STK35 (serine/threonine kinase 35), what does the deposit list?
phospho-ERK z-score, replicate mean: -0.35; Outcome: inactive

With UCK2 (uridine-cytidine kinase 2), how do the results read?
phospho-ERK z-score, replicate mean: 0.99; Outcome: inactive

For PHKA2 (phosphorylase kinase regulatory subunit alpha 2), what does the deposit list?
phospho-ERK z-score, replicate mean: -0.25; Outcome: inactive

What is on record for MELK (maternal embryonic leucine zipper kinase)?
phospho-ERK z-score, replicate mean: -1.35; Outcome: active

What did the screen give for PDK4 (pyruvate dehydrogenase kinase 4)?
phospho-ERK z-score, replicate mean: -0.88; Outcome: inactive

How did the screen score LTK (leukocyte receptor tyrosine kinase)?
phospho-ERK z-score, replicate mean: -0.66; Outcome: inactive

Which result is listed for CDC42BPA (CDC42 binding protein kinase alpha)?
phospho-ERK z-score, replicate mean: 1.46; Outcome: inactive
